From paper PMC12407099 come the findings set out here.

Protein sequences, listed by entry. Tags and fused reporters are not part of them. Lines headed by an entry give the natural chain unless they say otherwise; changes in a name come on top.
UniProt Q8BIQ5: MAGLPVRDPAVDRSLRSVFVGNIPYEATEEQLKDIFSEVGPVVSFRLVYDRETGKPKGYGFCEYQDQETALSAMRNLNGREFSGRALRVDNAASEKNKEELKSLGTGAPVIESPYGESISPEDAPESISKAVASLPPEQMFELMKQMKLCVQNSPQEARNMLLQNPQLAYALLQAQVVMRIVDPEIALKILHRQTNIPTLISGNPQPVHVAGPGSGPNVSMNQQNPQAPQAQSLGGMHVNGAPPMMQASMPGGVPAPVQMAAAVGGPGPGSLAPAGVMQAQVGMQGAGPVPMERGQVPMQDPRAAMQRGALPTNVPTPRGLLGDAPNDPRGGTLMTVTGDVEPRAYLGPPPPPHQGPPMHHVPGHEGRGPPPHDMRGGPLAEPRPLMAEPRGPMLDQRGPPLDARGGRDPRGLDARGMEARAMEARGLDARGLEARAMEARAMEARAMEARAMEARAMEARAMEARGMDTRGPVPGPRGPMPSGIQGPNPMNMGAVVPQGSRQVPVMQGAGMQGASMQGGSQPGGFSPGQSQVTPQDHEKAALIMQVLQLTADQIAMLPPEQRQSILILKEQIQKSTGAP

Common to all, as to assay: co-IP; Flag-tagged Hnrnpl or Cstf2 constructs (WT or mutant) expressed in HEK293T, harvested 48 h after transfection; clarified lysate with protease and RNase inhibitors; Flag agarose beads, 4°C, 4 h to overnight; mild wash buffer; western blot
The target of assay [1] is RRM-deleted CstF64 mutant, C-terminally Flag-tagged (mouse) (UniProt Q8BIQ5).
In assay [2] the target is hnRNPL with deletion of vRRM2 (UniProt Q8R081).
The target of assay [3] is hnRNPL with deletion of vRRM3 (UniProt Q8R081).

Results are given in words; binding and its absence hold for the method and conditions named. In cells and extracts the contact can be indirect. Binding can be weak; no strength is given.

B1: hnRNPL, endogenous in HEK293T (protein, UniProt P14866 1-589)
chain: MSRRLLPRAEKRRRRLEQRQQPDEQRRRSGAMVKMAAAGGGGGGGRYYGGGSEGGRAPKRLKTDNAGDQHGGGGGGGGGAGAAGGGGGGENYDDPHKTPASPVVHIRGLIDGVVEADLVEALQEFGPISYVVVMPKKRQALVEFEDVLGACNAVNYAADNQIYIAGHPAFVNYSTSQKISRPGDSDDSRSVNSVLLFTILNPIYSITTDVLYTICNPCGPVQRIVIFRKNGVQAMVEFDSVQSAQRAKASLNGADIYSGCCTLKIEYAKPTRLNVFKNDQDTWDYTNPNLSGQGDPGSNPNKRQRQPPLLGDHPAEYGGPHGGYHSHYHDEGYGPPPPHYEGRRMGPPVGGHRRGPSRYGPQYGHPPPPPPPPEYGPHADSPVLMVYGLDQSKMNCDRVFNVFCLYGNVEKVKFMKSKPGAAMVEMADGYAVDRAITHLNNNFMFGQKLNVCVSKQPAIMPGQSYGLEDGSCSYKDFSESRNNRFSTPEQAAKNRIQHPSNVLHFFNAPLEVTEENFFEICDELGVKRPSSVKVFSGKSERSSSGLLEWESKSDALETLGFLNHYQMKNPNGPYPYTLKLCFSTAQHAS
Turning to B1, the binding entry in assay [1] is “binds”.

B2: CstF64 (polyadenylation/cleavage stimulating factor), endogenous in HEK293T (protein, UniProt P33240 1-577)
chain: MAGLTVRDPAVDRSLRSVFVGNIPYEATEEQLKDIFSEVGPVVSFRLVYDRETGKPKGYGFCEYQDQETALSAMRNLNGREFSGRALRVDNAASEKNKEELKSLGTGAPVIESPYGETISPEDAPESISKAVASLPPEQMFELMKQMKLCVQNSPQEARNMLLQNPQLAYALLQAQVVMRIVDPEIALKILHRQTNIPTLIAGNPQPVHGAGPGSGSNVSMNQQNPQAPQAQSLGGMHVNGAPPLMQASMQGGVPAPGQMPAAVTGPGPGSLAPGGGMQAQVGMPGSGPVSMERGQVPMQDPRAAMQRGSLPANVPTPRGLLGDAPNDPRGGTLLSVTGEVEPRGYLGPPHQGPPMHHVPGHESRGPPPHELRGGPLPEPRPLMAEPRGPMLDQRGPPLDGRGGRDPRGIDARGMEARAMEARGLDARGLEARAMEARAMEARAMEARAMEARAMEVRGMEARGMDTRGPVPGPRGPIPSGMQGPSPINMGAVVPQGSRQVPVMQGTGMQGASIQGGSQPGGFSPGQNQVTPQDHEKAALIMQVLQLTADQIAMLPPEQRQSILILKEQIQKSTGAP
Take B2: the binding entry in assay [2] and in assay [3] was “binds” throughout.
